The list shows a part of the results. These are further read-outs of the screen, such as a control signal, another cell line or another target. No call is given for them. Compounds called inactive in the main read-out are mostly missing here. Words in brackets tell the shape of the fitted curve; partial curves, single points and poor fits give uncertain potencies.
Experiment: IkB Signaling
Settings: ABC-DLBCL IkBa-CBG/CBR dual luciferase ratio (green luciferase fused to IkBa over red control in OCI-Ly3 lymphoma cells), 4 h
In short: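 Luminescence ratio of IκBα-fused green versus native red beetle luciferase in OCI-Ly3 cells, 4 h post-doxycycline with compound; red signal alone, scaled from basal (0%) to zero light (-100%), flagged nonspecific or cytotoxic effects.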

[1] = measured here: control luc red channel unless noted
[2] = measured here: IkB-luc green channel
[3] = measured here: control luc red channel

O=C(CN1CCN(Cc2ccc(F)cc2)C1=O)NCc1ccc(F)cc1
AC50 [1]: 0.0251 µM [falling, full curve, poor fit]

CCOC(=O)Cn1c(CN(C)Cc2ccccc2)nc2c1c(=O)n(C)c(=O)n2C
AC50 [1]: 39.8 µM [falling, single point]

Cc1ccc(NC2(c3ccccc3)C(=O)c3ccccc3C2=O)cc1F
AC50 [1]: 2.51 µM [falling, partial curve]

CC1CCN(S(=O)(=O)c2ccc3c(c2)N(CC(=O)NCCCOC(C)C)C(=O)CO3)CC1
AC50 [1]: 5.01 µM [falling, single point]

CCc1ccccc1NC(=O)CN(c1ccccc1OC)S(=O)(=O)c1ccc(C)cc1
AC50 [1]: 20 µM [falling, partial curve]

Cc1ccsc1CN(C(=O)COc1ccccc1Cl)C1CCS(=O)(=O)C1 (centres undefined)
AC50 [1]: 25.1 µM [falling, single point]

CN(CC(=O)Nc1ccc2c(c1)OCCO2)S(=O)(=O)c1ccc(Br)s1
AC50 [1]: 12.6 µM [falling, partial curve]

Cc1nn(CCC(=O)Nc2ccc(Cl)cc2)c(C)c1S(=O)(=O)N1CCCCC1
AC50 [1]: 12.6 µM [falling, single point]

COc1ccc(-c2cc(C(=O)Nc3cc(C(F)(F)F)ccc3Cl)no2)cc1
AC50 [1]: 1.26 µM [rising, full curve]

COc1ccccc1Cn1cc(C(=O)c2ccccc2)c(=O)c2cc(OC)c(OC)cc21
AC50 [1]: 31.6 µM [falling, single point]

Cc1ccc2c(CC(=O)Nc3nc(C)cs3)coc2c1
AC50 [2]: 10 µM [falling, partial curve] | AC50 [3]: 7.94 µM [falling, full curve]

COC(=O)[C@H](NC(=O)c1cc(-c2ccccc2)nc2ccccc12)c1ccccc1
AC50 [1]: 12.6 µM [falling, partial curve]

COc1ccccc1-c1cc2nc(C)c(CCC(=O)NCc3ccco3)c(C)n2n1
AC50 [1]: 1 µM [falling, full curve]

O=C(O)c1ccc(NC(=O)c2ccc(Cl)c(S(=O)(=O)N3CCCCCC3)c2)cc1
AC50 [1]: 15.8 µM [falling, partial curve]

COC(=O)c1ccc(NC(=O)C(C)Sc2nc(=O)cc(N)n2CCc2ccccc2)cc1 (centres undefined)
AC50 [1]: 20 µM [falling, partial curve]

Cc1nc2c3ccccc3nc(NNC(=O)CCC(=O)O)n2n1
AC50 [1]: 0.0316 µM [falling, full curve, poor fit]

Cc1ccc(NC(=O)CN2C(=O)CCSc3ccccc32)c(C)c1
AC50 [1]: 3.98 µM [rising, single point]

COc1ccc(-c2csc(N(CC3CCCO3)C(=O)c3ccco3)n2)cc1 (centres undefined)
AC50 [1]: 39.8 µM [falling, single point]

COc1ccc(CCNC(=O)c2ccc3c(c2)nc(C)n3-c2ccc(Br)cc2)cc1OC
AC50 [1]: 3.16 µM [falling, partial curve]

COc1ccccc1C(=O)Nc1nnc(SCc2cc(=O)c3ccccc3[nH]2)s1
AC50 [1]: 25.1 µM [falling, partial curve]

Fc1ccccc1N1CCN(c2nc3ccccc3n3nnnc23)CC1
AC50 [1]: 0.501 µM [falling, full curve]

O=C(c1ccc2c(c1)OCO2)[C@@H]1[C@@H]2C(=O)N(C3CCCCC3)C(=O)[C@@H]2C2c3ccccc3C=CN21 (some centres undefined)
AC50 [1]: 2 µM [falling, full curve]

CCN(C(=O)c1ccc(C(=O)N(CC)c2ccccc2C)cc1)c1ccccc1C
AC50 [1]: 20 µM [falling, single point]

CCOc1ccc(NC(=O)c2cc3cc4ccc(C)cc4nc3o2)cc1
AC50 [1]: 12.6 µM [rising, partial curve]

Brc1cccc(-c2nnn3c2nc(NC2CCCCC2)c2ccccc23)c1
AC50 [1]: 1 µM [falling, full curve]

COc1ccc(N(C(=O)c2ccco2)C(C(=O)NC2CCCC2)c2ccc(N(C)C)cc2)cc1 (centres undefined)
AC50 [1]: 12.6 µM [falling, partial curve]

CCOC(=O)Cc1csc(NC(=O)CSc2nc3cccnc3n2CC)n1
AC50 [1]: 25.1 µM [falling, single point]

CCS(=O)(=O)c1ncc(Cl)c(C(=O)Nc2ccc(S(=O)(=O)N(C)c3ccccc3)cc2)n1
AC50 [1]: 3.16 µM [falling, full curve]

CC1CCCCN1CCNC(=O)c1ccc(Cn2c(SCc3ccccc3)nc3cccnc32)cc1 (centres undefined)
AC50 [1]: 25.1 µM [falling, single point]

Cc1noc(C)c1CSCC(=O)N1CCN(c2ccc(F)cc2)CC1
AC50 [1]: 25.1 µM [falling, partial curve]

Cc1cccc(C)c1Nc1sc(C(=O)c2ccccc2)c(N)c1S(=O)(=O)c1ccccc1
AC50 [1]: 39.8 µM [falling, single point]

CCc1cccc(NC(=O)C2CCN(S(=O)(=O)c3ccc(Br)s3)CC2)c1
AC50 [1]: 15.8 µM [falling, partial curve]

Cc1ccc(C)c(NC(=O)Nc2cc3c(cc2N2CCCCC2)n(C)c(=O)n3C)c1
AC50 [1]: 3.16 µM [falling, single point]

COc1ccc(Cn2c(C(=O)O)c(CNCc3ccco3)c3ccc(C)cc32)cc1
AC50 [1]: 20 µM [falling, partial curve]

COCCNC(=O)CSc1c(C)cnc2c1c(=O)n(C)c(=O)n2C
AC50 [1]: 5.01 µM [rising, partial curve]

Cc1ccc(NC(=O)Cn2cnc3c(oc4ccccc43)c2=O)cc1Cl
AC50 [1]: 20 µM [falling, single point]

CCSc1ccccc1C(=O)N1CCN(c2nc3ccccc3s2)CC1
AC50 [1]: 31.6 µM [falling, single point]

COc1cccc(NC(=O)c2oc3ccc(S(=O)(=O)N(C)C4CCCCC4)cc3c2C)c1
AC50 [1]: 12.6 µM [falling, partial curve]

COC(=O)c1ccc(NC(=O)c2cnn(-c3ccc(Cl)cc3)c2C2CCN(C(=O)OC(C)(C)C)CC2)cc1
AC50 [1]: 39.8 µM [falling, single point]

Cc1cccc(C)c1NC(=O)CSc1nnc(Cn2nnc(-c3ccccc3)n2)n1-c1ccccc1
AC50 [1]: 20 µM [falling, single point]

Clc1ccc(-c2nnc3sc(-c4ccc(Br)o4)nn23)c(Cl)c1
AC50 [1]: 20 µM [falling, partial curve]

Cc1cc(C)c(NC(=O)c2cc(C)nc3c2c(C)nn3-c2cccc(F)c2)c(C)c1
AC50 [1]: 31.6 µM [falling, single point]

CCN(CC)C(=O)c1c(NC(=O)c2ccccc2F)sc2c1CCC(C(C)(C)C)C2 (centres undefined)
AC50 [1]: 12.6 µM [falling, partial curve]

CCCn1c(=O)sc2cc(NC(=O)c3ccccc3Cl)ccc21
AC50 [1]: 39.8 µM [falling, single point]

COc1cccc(N2CCN(C(=O)c3cccn3-c3nnc(N4CCCCC4)s3)CC2)c1
AC50 [1]: 15.8 µM [falling, partial curve, poor fit]

COCCCNC(=O)CCCn1c(SCC(=O)c2ccc(Br)cc2)nc2c(sc3ccccc32)c1=O
AC50 [1]: 12.6 µM [falling, partial curve]

Cc1ccc(C(=O)NCC(c2ccc(Cl)cc2)N2CCCCC2)cc1 (centres undefined)
AC50 [1]: 39.8 µM [falling, single point]

CCOc1ccc(C(=O)N2CC(=O)Nc3ccc(C)cc3C2c2ccc(F)cc2)cc1OCC (centres undefined)
AC50 [1]: 31.6 µM [falling, single point]

Cc1ccc(Cl)c2sc(NC(=O)c3ccc(S(=O)(=O)N4CCCC4)cc3)nc12
AC50 [1]: 1 µM [falling, partial curve]

C/C(=N/Nc1ccc2ccccc2n1)c1ccccc1O
AC50 [1]: 0.794 µM [falling, partial curve]

O=C(CSc1nn(-c2ccc(F)cc2)c(=S)s1)NC(=O)NCc1ccco1
AC50 [1]: 12.6 µM [falling, partial curve]

CSc1cccc(-n2nnc(-c3nsc(NC(=O)c4cccs4)n3)c2C)c1
AC50 [1]: 0.1 µM [rising, full curve, poor fit]

O=C(Nc1cnn(Cc2ccc(Cl)cc2Cl)c1)c1noc2c1CCCC2
AC50 [1]: 12.6 µM [falling, partial curve]

CCn1c(SCC(=O)Nc2ccc3c(c2)c2ccccc2n3CC)nnc1-c1cnccn1
AC50 [1]: 3.16 µM [falling, full curve, poor fit]

Cc1ccc(NC(=O)CN2C(=O)C(c3ccccc3)=NC23CCCCC3)cc1C
AC50 [1]: 31.6 µM [falling, single point]

CCc1ccc2occ(CC(=O)N(Cc3ccccc3)C3CCS(=O)(=O)C3)c2c1 (centres undefined)
AC50 [1]: 25.1 µM [falling, single point]

COc1ccc(-n2c(C)nc3c(cnn3-c3ccc(C)c(C)c3)c2=O)cc1Cl
AC50 [1]: 10 µM [falling, partial curve]

Cc1ccc(C)c(C(=O)N(Cc2nc(-c3ccc(Cl)cc3)no2)C(C)C)c1
AC50 [1]: 10 µM [falling, partial curve]

COc1cc(/C=C(/C#N)c2nc(-c3cc4ccccc4oc3=O)cs2)ccc1O
AC50 [2]: 25.1 µM [rising, single point] | AC50 [3]: 15.8 µM [rising, partial curve]

Cc1cccc(NC(=O)CSc2nc3c([nH]c4ccccc43)c(=O)n2-c2cc(C)cc(C)c2)c1
AC50 [1]: 2.51 µM [rising, partial curve]

CCOC(=O)Cc1csc(NC(=O)c2csc(C)c2)n1
AC50 [1]: 10 µM [falling, partial curve]

CC1CCCCN1C(=O)CSc1nc(-c2ccccc2)no1 (centres undefined)
AC50 [1]: 15.8 µM [falling, partial curve]

Source: PubChem BioAssay AID445 (National Center for Advancing Translational Sciences (NCATS), 2006)
